Measured values taken from the supplement of paper PMC9549374.
The list shows a part of the results. No stated cut-off is given here; in the data, active = 2-fold of DMSO or more and inactive = the rest. Single values of this set are uncertain. Some low values are a fixed figure set by the source, not a measured ratio.

The compounds below were run on CM7/1-hgem mouse ES cell-derived cardiomyocytes (assay: maximal number of mAG-hGem(1/110)-positive cardiomyocytes over 96 h, fold-change vs DMSO; higher = more cardiomyocyte cell cycle activity). Details: 1 µM; 96 (max over 12 h time points) h.

SMILES	maximal number
CC1=C(O)C(=O)C=C2C1=CC=C1[C@@]2(C)CC[C@@]2(C)[C@@H]3C[C@](C)(C(=O)O)CC[C@]3(C)CC[C@]12C	inactive: 1
CNC1CC(N)C(O)C(OC2OC(CO)C(O)C3OC4(OC(C(N)CO)C(O)C(O)C4O)OC23)C1O (stereo unspecified)	inactive: 1
C[C@H]1O[C@@H](O[C@H]2[C@@H](O)C[C@H](O[C@H]3[C@@H](O)C[C@H](O[C@H]4CC[C@@]5(C)[C@H](CC[C@@H]6[C@@H]5CC[C@]5(C)[C@@H](C7=CC(=O)OC7)[C@@H](O)C[C@]65O)C4)O[C@@H]3C)O[C@@H]2C)C[C@H](O)[C@@H]1O	active: 3
C[C@@H]1CC[C@@]2(OC1)O[C@H]1[C@@H](O)[C@H]3[C@@H]4CC[C@H]5C[C@@H](O[C@@H]6O[C@H](CO)[C@H](O[C@@H]7O[C@H](CO)[C@@H](O)[C@H](O[C@@H]8OC[C@@H](O)[C@H](O)[C@H]8O)[C@H]7O[C@@H]7O[C@H](CO)[C@H](O)[C@H](O[C@@H]8O[C@H](CO)[C@@H](O)[C@H](O)[C@H]8O)[C@H]7O)[C@H](O)[C@H]6O)[C@H](O)C[C@]5(C)[C@H]4CC[C@]3(C)[C@H]1[C@@H]2C	inactive: 0
CC(C)=CCOc1c2occc2cc2ccc(=O)oc12	inactive: 1
Cc1nnc2n1-c1ccc(Cl)cc1C(c1ccccc1)=NC2	inactive: 1
COc1cc2c(cc1OC)[C@@H]1C(=O)c3ccc4oc(C(C)C)cc4c3O[C@@H]1CO2	inactive: 1
NC(=O)CN1CCCC1=O	inactive: 1
CCC(N)C(O)c1ccc(O)c(O)c1 (stereo unspecified)	inactive: 1
NNCc1ccccc1	inactive: 1
CC[C@@H](C(N)=O)N1CCCC1=O	inactive: 1
CC1(C)C2CC(=O)[C@]3(C)C(CC[C@@]4(C)[C@H](c5ccoc5)OC(=O)C5OC543)[C@@]2(C)[C@@H](O)C[C@H]1O (stereo partly specified)	inactive: 0.5
CC(=O)Oc1ccc(/C=C/c2cc(OC(C)=O)cc(OC(C)=O)c2)cc1	inactive: 1
COc1ccc(/C=C/c2cc(O)cc(O)c2)cc1	inactive: 1
COc1cc2c(cc1OC)[C@@H]1C(=O)c3ccc4c(c3O[C@@H]1CO2)CC(C(C)C)O4 (stereo partly specified)	inactive: 0.5
CCN(Cc1ccc(Cl)nc1)/C(=C/[N+](=O)[O-])NC	inactive: 1

Fetched by compound from the entries so far (2):
SMILES	maximal number
CC[C@@H](C(N)=O)N1CCCC1=O	inactive: 1
COc1cc2c(cc1OC)[C@@H]1C(=O)c3ccc4oc(C(C)C)cc4c3O[C@@H]1CO2	inactive: 1

The results go on.

SMILES	maximal number
C/C=C(\C)C(=O)O[C@H]1C[C@@H](OC(C)=O)[C@@]2(C(=O)OC)CO[C@H]3[C@@H](O)[C@@](C)([C@]45O[C@@]4(C)[C@H]4C[C@@H]5O[C@@H]5OC=C[C@@]54O)[C@H]4[C@]1(CO[C@]4(O)C(=O)OC)[C@@H]32	inactive: 1
C[C@]12CCC(=O)C[C@@H]1CC[C@@H]1[C@@H]2CC[C@]2(C)C(=O)CC[C@@H]12 [5alpha-ANDROSTAN-3,17-DIONE]	inactive: 1
CC1(C)C2CC(=O)[C@]3(C)C(CC[C@@]4(C)[C@H](c5ccoc5)OC(=O)[C@H]5O[C@]543)[C@@]2(C)C(=O)C[C@H]1O (stereo partly specified)	inactive: 1
O=C(NC(=O)c1c(F)cccc1F)Nc1cc(Cl)c(OC(F)(F)C(F)C(F)(F)F)cc1Cl (stereo unspecified)	inactive: 1
N.N.[Cl][Pt][Cl]	inactive: 0
CC[C@@H](C(=O)[C@@H](C)[C@@H](O)[C@H](C)[C@@H]1O[C@@H]([C@@H](CC)C(=O)O)CC[C@@H]1C)[C@H]1O[C@]2(C=C[C@@H](O)[C@]3(CC[C@@](C)([C@H]4CC[C@](O)(CC)[C@H](C)O4)O3)O2)[C@H](C)C[C@@H]1C	inactive: 1
CC(C)=CCCC1(C)C=Cc2c(O)c3c(c(CC=C(C)C)c2O1)OC12C(CC4CC1C(C)(C)OC2(C/C=C(/C)C(=O)O)C4O)C3=O (stereo unspecified)	inactive: 1
C[C@]12CC[C@H]3[C@@H](CC[C@]4(O)C[C@@H](O)CC[C@]34C=O)[C@@]1(O)CC[C@@H]2C1=CC(=O)OC1	inactive: 0
C[C@@H]1C[C@H](O)[C@@]2(O)[C@]13CC(=O)OC[C@@]2(C)[C@@](C)(O)C(=O)C3	inactive: 1
Cc1nccc2c1[nH]c1cc(O)ccc12	inactive: 1
CC(C)=CCC[C@]1(C)C=Cc2c(O)c3c(c(CC=C(C)C)c2O1)O[C@]12C(=C[C@@H]4C[C@H]1C(C)(C)O[C@@]2(C/C=C(/C)C(=O)O)C4=O)C3=O	inactive: 1
COc1cc2c(cc1OC)-c1c(oc3c4c(ccc3c1=O)OC(C(C)C)C4)CO2 (stereo unspecified)	inactive: 1
Cc1cccc(C)c1NC(=O)CN1CCCC1=O	inactive: 1
O=c1ccc2cc(O[C@@H]3O[C@H](CO)[C@@H](O)[C@H](O)[C@H]3O)c(O)cc2o1	inactive: 1
N#C[C@H](O[C@@H]1O[C@H](CO[C@@H]2O[C@H](CO)[C@@H](O)[C@H](O)[C@H]2O)[C@@H](O)[C@H](O)[C@H]1O)c1ccccc1	inactive: 1
